Measured values as given in patent publication US20110001042A1, “ASSESSING TREATMENT COMPLIANCE” (priority 2007, published 2011).
Where “and” joins values, the source holds several entries; their conditions need not be identical. Equal entries are not always repeated.

How the values were obtained:
[1] = limit of quantitation
[2] = interference of other steroids with measurement of fluticasone-17-beta-carboxylic acid in pooled urine; settings: mean of specimens

Question: For `CCC(=O)O[C@]1(C(=O)O)[C@H](C)C[C@H]2[C@@H]3C[C@H](F)C4=CC(=O)C=C[C@]4(C)[C@@]3(F)[C@@H](O)C[C@@]21C` [Fluticasone 17β carboxylic acid], which “Minimum (Conc), Mean (limit of quantitation)” value ([1]; mean of 20 replicates) is on record?
Answer: The value was 10.4 pg/mL.

Question: And the “Minimum (Conc)” value ([1]; replicates 1-20, listed as F17bCOOH)?
Answer: The value was 10.6 pg/mL (2×) and 15.3 pg/mL and 11.9 pg/mL and 9.5 pg/mL and 9.8 pg/mL and 8.3 pg/mL (2×) and 12.8 pg/mL and 11.1 pg/mL and 8.2 pg/mL and 12.1 pg/mL and 11.3 pg/mL and 10.4 pg/mL and 10.1 pg/mL and 11.7 pg/mL and 8.9 pg/mL and 8.6 pg/mL and 10.8 pg/mL and 7.7 pg/mL.

Question: And the “% Difference from F17bCOOH alone, Mean” value ([2]; with DOC standard)?
Answer: The value was −8.8%.

Question: What about the “% Difference from F17bCOOH alone, Mean” value ([2]; with synthetic glucocorticoids) of the same molecule?
Answer: Its value is 8.8%.
